Results are given in words; binding and its absence hold for the method and conditions named. Some binding calls cover weakened binding; strength is not graded here.

Sequences of proteins named here, by UniProt entry; tags and fusion partners are left off.
UniProt P53675: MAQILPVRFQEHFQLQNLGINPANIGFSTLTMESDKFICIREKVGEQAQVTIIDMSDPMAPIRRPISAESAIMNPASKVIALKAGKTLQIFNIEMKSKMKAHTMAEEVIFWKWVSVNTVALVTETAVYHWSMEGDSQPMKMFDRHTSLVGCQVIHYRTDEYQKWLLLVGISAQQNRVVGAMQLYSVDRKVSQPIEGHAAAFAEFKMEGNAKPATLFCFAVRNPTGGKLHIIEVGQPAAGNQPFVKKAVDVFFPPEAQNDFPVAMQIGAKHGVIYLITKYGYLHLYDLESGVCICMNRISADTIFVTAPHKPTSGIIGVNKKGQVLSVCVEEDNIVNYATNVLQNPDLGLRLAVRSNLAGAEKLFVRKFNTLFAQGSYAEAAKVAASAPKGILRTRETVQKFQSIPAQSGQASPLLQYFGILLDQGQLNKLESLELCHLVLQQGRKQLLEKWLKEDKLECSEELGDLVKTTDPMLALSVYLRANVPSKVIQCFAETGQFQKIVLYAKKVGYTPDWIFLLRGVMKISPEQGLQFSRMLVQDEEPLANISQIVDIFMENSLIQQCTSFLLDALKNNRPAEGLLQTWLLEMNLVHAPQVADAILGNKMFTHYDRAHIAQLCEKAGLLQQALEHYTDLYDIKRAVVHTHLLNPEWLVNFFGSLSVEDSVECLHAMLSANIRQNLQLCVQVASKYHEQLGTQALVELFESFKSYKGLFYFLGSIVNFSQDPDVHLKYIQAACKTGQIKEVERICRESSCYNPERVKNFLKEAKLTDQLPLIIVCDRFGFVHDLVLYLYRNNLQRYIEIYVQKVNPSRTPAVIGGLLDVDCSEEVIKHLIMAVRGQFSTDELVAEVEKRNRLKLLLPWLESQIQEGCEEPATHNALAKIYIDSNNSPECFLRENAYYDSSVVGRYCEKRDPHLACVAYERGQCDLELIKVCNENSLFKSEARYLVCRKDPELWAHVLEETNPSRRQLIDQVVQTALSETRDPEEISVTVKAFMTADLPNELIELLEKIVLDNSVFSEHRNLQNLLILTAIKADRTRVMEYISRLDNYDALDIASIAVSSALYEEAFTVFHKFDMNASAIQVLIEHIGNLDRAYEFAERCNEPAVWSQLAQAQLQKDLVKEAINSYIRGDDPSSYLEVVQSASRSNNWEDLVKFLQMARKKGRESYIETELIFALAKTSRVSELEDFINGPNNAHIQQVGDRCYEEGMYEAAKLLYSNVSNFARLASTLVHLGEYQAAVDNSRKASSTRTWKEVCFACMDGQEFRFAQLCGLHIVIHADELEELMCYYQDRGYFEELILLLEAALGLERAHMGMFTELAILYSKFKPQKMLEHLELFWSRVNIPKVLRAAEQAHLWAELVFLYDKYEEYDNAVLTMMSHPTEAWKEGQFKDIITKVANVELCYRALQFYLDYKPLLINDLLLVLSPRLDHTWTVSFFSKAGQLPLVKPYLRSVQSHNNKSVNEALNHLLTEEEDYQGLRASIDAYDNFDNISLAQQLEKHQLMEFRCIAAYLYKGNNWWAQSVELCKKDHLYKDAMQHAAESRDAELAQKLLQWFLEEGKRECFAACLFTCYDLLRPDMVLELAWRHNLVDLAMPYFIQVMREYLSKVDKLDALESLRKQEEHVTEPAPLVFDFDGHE
UniProt Q00610: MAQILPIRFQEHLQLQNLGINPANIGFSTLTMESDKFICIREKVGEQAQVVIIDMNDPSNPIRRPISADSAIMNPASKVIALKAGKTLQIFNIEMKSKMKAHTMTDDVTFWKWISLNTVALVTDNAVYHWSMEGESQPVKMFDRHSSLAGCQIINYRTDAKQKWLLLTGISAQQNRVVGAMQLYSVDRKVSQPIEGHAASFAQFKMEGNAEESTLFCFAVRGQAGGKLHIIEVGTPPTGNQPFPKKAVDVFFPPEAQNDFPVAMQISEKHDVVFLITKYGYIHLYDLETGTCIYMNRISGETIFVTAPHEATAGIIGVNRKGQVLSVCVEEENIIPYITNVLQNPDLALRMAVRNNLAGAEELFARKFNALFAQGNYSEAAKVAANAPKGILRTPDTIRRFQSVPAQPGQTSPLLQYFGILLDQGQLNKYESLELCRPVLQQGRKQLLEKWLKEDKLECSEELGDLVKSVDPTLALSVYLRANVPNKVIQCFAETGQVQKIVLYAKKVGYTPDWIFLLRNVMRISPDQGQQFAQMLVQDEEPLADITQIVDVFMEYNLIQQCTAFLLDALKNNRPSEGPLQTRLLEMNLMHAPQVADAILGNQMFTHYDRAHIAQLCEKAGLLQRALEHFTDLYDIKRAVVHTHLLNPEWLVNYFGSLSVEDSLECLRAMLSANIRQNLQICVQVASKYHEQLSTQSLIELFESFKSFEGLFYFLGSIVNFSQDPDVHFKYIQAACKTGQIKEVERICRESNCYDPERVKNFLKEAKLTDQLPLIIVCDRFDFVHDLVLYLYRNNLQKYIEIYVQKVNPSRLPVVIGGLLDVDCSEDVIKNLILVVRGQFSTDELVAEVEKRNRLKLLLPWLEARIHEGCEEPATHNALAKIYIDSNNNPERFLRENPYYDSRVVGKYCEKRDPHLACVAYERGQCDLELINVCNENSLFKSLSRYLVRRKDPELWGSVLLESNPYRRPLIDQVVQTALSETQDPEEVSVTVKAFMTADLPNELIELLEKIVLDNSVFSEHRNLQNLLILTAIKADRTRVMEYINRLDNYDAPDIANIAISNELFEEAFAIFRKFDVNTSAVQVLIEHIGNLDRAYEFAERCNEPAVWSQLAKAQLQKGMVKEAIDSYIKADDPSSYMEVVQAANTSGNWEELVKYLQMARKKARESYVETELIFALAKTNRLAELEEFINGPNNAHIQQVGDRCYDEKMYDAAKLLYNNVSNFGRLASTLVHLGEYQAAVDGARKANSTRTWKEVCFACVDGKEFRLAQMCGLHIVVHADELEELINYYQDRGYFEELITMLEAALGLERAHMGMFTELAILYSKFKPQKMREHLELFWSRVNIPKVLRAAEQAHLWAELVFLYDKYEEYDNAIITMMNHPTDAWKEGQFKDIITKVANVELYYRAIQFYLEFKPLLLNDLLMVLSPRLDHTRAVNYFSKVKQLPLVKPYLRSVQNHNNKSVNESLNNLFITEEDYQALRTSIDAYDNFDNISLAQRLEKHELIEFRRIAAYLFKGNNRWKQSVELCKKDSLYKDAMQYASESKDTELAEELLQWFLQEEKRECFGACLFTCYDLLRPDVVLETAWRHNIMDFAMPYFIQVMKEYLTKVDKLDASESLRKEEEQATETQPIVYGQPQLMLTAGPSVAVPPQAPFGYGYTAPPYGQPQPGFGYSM

B1: PICALM (protein, UniProt Q13492 1-652)
chain: MSGQSLTDRITAAQHSVTGSAVSKTVCKATTHEIMGPKKKHLDYLIQCTNEMNVNIPQLADSLFERTTNSSWVVVFKSLITTHHLMVYGNERFIQYLASRNTLFNLSNFLDKSGLQGYDMSTFIRRYSRYLNEKAVSYRQVAFDFTKVKRGADGVMRTMNTEKLLKTVPIIQNQMDALLDFNVNSNELTNGVINAAFMLLFKDAIRLFAAYNEGIINLLEKYFDMKKNQCKEGLDIYKKFLTRMTRISEFLKVAEQVGIDRGDIPDLSQAPSSLLDALEQHLASLEGKKIKDSTAASRATTLSNAVSSLASTGLSLTKVDEREKQAALEEEQARLKALKEQRLKELAKKPHTSLTTAASPVSTSAGGIMTAPAIDIFSTPSSSNSTSKLPNDLLDLQQPTFHPSVHPMSTASQVASTWGDPFSATVDAVDDAIPSLNPFLTKSSGDVHLSISSDVSTFTTRTPTHEMFVGFTPSPVAQPHPSAGLNVDFESVFGNKSTNVIVDSGGFDELGGLLKPTVASQNQNLPVAKLPPSKLVSDDLDSSLANLVGNLGIGNGTTKNDVNWSQPGEKKLTGGSNWQPKVAPTTAWNAATMAPPVMAYPATTPTGMIGYGIPPQMGSVPVMTQPTLIYSQPVMRPPNPFGPVSGAQIQFM
B2: CLTA (protein, UniProt P09496 1-248)
chain: MAELDPFGAPAGAPGGPALGNGVAGAGEEDPAAAFLAQQESEIAGIENDEAFAILDGGAPGPQPHGEPPGGPDAVDGVMNGEYYQESNGPTDSYAAISQVDRLQSEPESIRKWREEQMERLEALDANSRKQEAEWKEKAIKELEEWYARQDEQLQKTKANNRVADEAFYKQPFADVIGYVTNINHPCYSLEQAAEEAFVNDIDESSPGTEWERVARLCDFNPKSSKQAKDVSRMRSVLISLKQAPLVH

The target of the test is T1, MTMR3-uORF-peptide (human).
T1 sequence (peptide): MLLWL
Description: peptide or protein array; PRISMA, second screen: 221 peptides of 3-15 aa in full length and four SOS1/GLUT1 control peptides spot-synthesized on a cellulose membrane, incubated with HEK293T lysate; bound proteins by LC-MS/MS with LFQ, each peptide against all other peptides; cutoff c = 6, x0 = 2.8; triplicates; only the target purified.
For CLTCL1 (from UniProt P53675 1-1640), the binding entry is listed as “binds”.
The entry for CLTC (from UniProt Q00610 1-1675) is “binds”.
In the case of B1 it was “binds”; in that of B2, “binds”.

Values taken from article PMC10032668.
